Reference: patent US20260231994A1, “TASTE-ENHANCING COMPOSITION, METHOD FOR PRODUCING SAME, FOOD PRODUCT, AND METHOD FOR ENHANCING TASTE OF FOOD PRODUCT” (HOUSE FOODS GROUP INC., priority 2023, published 2026)

How the values were obtained:
[1] = Constituent analysis of paprika samples by LC-MS/MS (peak area ratio to internal standard); conditions: constituent specific to heat-treated paprika
[2] = Constituent analysis of unheated and heat-treated coriander by LC-MS/MS (peak area ratio to internal standard); conditions: for Heated Average value, content of cyclic dipeptide (area ratio to standard peak area): heat-treated coriander (250° C. for 6 min); for Heated Average value, content of cyclic dipeptide (area ratio to standard peak area) / Unheated Average value, content of cyclic dipeptide (area ratio to standard peak area): internal standard 47 μg/g L-lysine-13C6 monohydrochloride, n=2; for Magnification (heated/unheated): increase of cyclic dipeptide content in coriander by heating; for Unheated Average value, content of cyclic dipeptide (area ratio to standard peak area): unheated coriander

Substance	content in unheated paprika [1]	Heated Average value, content of cyclic dipeptide (area ratio to standard peak area) [2]	Magnification (heated/unheated) [2]	Unheated Average value, content of cyclic dipeptide (area ratio to standard peak area) [2]
cyclic (Ala-Asp) [Coriander ID 58]	below detection limit	–	–	–
cyclic (Ala-Leu/Ile) [Coriander ID 32]	–	0.645	22.4	0.029
cyclic (Ala-Pro) [Coriander ID 23]	–	0.122	39.7	0.003
cyclic (Ala-Val) [Coriander ID 27]	–	0.710	16.3	0.044
cyclic (Arg-Pro) [Coriander ID 45]	–	0.028	–	–
cyclic (Gly-His) [Coriander ID 4]	below detection limit	–	–	–
cyclic (Gly-Ser) [Coriander ID 5]	below detection limit	–	–	–
cyclic (Gly-Val) [Coriander ID 21]	below detection limit	0.208	–	–
cyclic (Leu/Ile-Val) [Coriander ID 42]	–	1.345	26.3	0.051
cyclic (Phe-Ala) [Coriander ID 33]	–	0.722	5.0	0.145
cyclic (Phe-Pro) [Coriander ID 40]	–	0.385	10.2	0.038
cyclic (Pro-His) [Coriander ID 15]	–	0.010	–	–
cyclic (Pro-Met) [Coriander ID 53]	–	0.142	6.7	0.021
cyclic (Pro-Pro) + cyclic (hyPro-Pro) [Ex. 8]	–	0.297	11.4	0.026
cyclic (Pro-Val) [Coriander ID 29]	–	0.341	34.3	0.010
cyclic (Thr-Pro) [Coriander ID 14]	–	0.833	38.6	0.022
cyclic (Tyr-Asp)	below detection limit	–	–	–
cyclic (hyPro-Leu) + cyclic (hyPro-Ile) cyclic (Pro-Leu) + cyclic (Pro-Ile) [Ex. 13]	–	0.136	24.5	0.006
cyclic (hyPro-Pro) [Coriander ID 17]	below detection limit	–	–	–
